This is one part of the list. The main result of the screen is listed elsewhere. These columns were measured beside it and carry no call. Most of these compounds were active or inconclusive in the main read-out, so they are no random draw. The note in brackets gives the kind of curve behind each potency; many fits are weak.
Assay: qHTS Assay for Modulators of Lamin A Splicing
Details: HeLa LMNA splicing GFP/RFP minigene ratio, 48 h
In short: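 S3 HeLa cells stably expressing lamin A-EGFP splicing minigene plus DsRed2, 600 cells/well, 48 h compound exposure at 37C. Laser-scanning cytometry; analysed as GFP (500-530 nm)/RFP (575-640 nm) total intensity ratio; 0.5% DMSO vehicle.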

[1] = measured here: GFP splicing reporter channel
[2] = measured here: RFP viability control channel

Row | Structure (SMILES) | AC50 [1] | AC50 [2]
1 | C=C1c2cc(C)ccc2NC(=O)N1c1ccccc1 | 4.47 µM [falling, single point] | –
2 | COc1ccc(-c2nnc(SCC(=O)Nc3ccc(C)c(Cl)c3)nc2-c2ccc(OC)c(OC)c2)cc1OC | – | 35.5 µM [falling, single point]
3 | Cc1ccc(-c2noc(C3CCCN(C(=O)c4ccc(F)cc4F)C3)n2)cc1 (stereo not given) | – | 35.5 µM [rising, single point]
4 | O=c1c2ccccc2nc2n1C(CSCc1ccc(Cl)cc1)CS2 (stereo not given) | – | 12.6 µM [rising, partial curve]
5 | CCN(CC)c1ccc(/C=N/Nc2nc3ccccc3[nH]2)c(O)c1 | – | 35.5 µM [falling, single point]
6 | Nc1nnc(SCc2coc(-c3ccc(Cl)cc3)n2)s1 | – | 35.5 µM [rising, single point]
7 | O=c1[nH]c(Cc2ccccc2Cl)nc2ccccc12 | – | 2.82 µM [falling, partial curve, poor fit]
8 | CCOc1ccc2c(C)nc(NC3=NC(C)(C)C=C(C)N3)nc2c1 | – | 17.8 µM [rising, single point]
9 | CC(=O)Oc1cc2c(c(C)c1OC(C)=O)CC=C1[C@]3(C)CC[C@]4(C)CC[C@@](C)(C(=O)O)CC4[C@]3(C)CC[C@]12C (stereo not given in full) | 6.31 µM [falling, full curve] | 5.62 µM [falling, full curve]
10 | Cc1cc(C)c(NC(=S)NC(NC(=O)c2ccccc2)C(Cl)(Cl)Cl)c(C)c1 (stereo not given) | – | 12.6 µM [rising, partial curve]
11 | COC(=O)c1[nH]c2cccc(Cl)c2c1NC(=O)CN1CCCCC1C (stereo not given) | – | 10 µM [rising, single point]
12 | COc1ccccc1NC(=O)CCNS(=O)(=O)c1ccc2c(c1)CCN2C(=O)C1CC1 | 10 µM [falling, partial curve] | 11.2 µM [falling, partial curve]
13 | Cc1ccc(C(=O)N2CCCC(CCC(=O)N3CCN(c4ccccn4)CC3)C2)s1 (stereo not given) | 0.891 µM [falling, partial curve, poor fit] | –
14 | CCOC(=O)N1CCN(S(=O)(=O)c2ccc(C(=O)Nc3nc4ccc(F)cc4s3)cc2)CC1 | – | 35.5 µM [falling, single point]
15 | CCN(Cc1ccccc1)S(=O)(=O)c1ccc(C(=O)Nc2nnc(C3CC3)o2)cc1 | – | 10 µM [rising, partial curve]
16 | COc1ccc(C2=CC(c3ccc(OC)c(OC)c3)n3nnnc3N2)c(OC)c1 (stereo not given) | – | 12.6 µM [rising, partial curve]
17 | CCOC(=O)Cc1cnc(NC(=O)CSc2nc3ncnc(N)c3[nH]2)s1 | 35.5 µM [rising, partial curve, poor fit] | 31.6 µM [rising, partial curve]

Sorted by molecular weight (largest number first): part of the list above.
Row | Structure (SMILES) | AC50 [1] | AC50 [2]
14 | CCOC(=O)N1CCN(S(=O)(=O)c2ccc(C(=O)Nc3nc4ccc(F)cc4s3)cc2)CC1 | – | 35.5 µM [falling, single point]
15 | CCN(Cc1ccccc1)S(=O)(=O)c1ccc(C(=O)Nc2nnc(C3CC3)o2)cc1 | – | 10 µM [rising, partial curve]
16 | COc1ccc(C2=CC(c3ccc(OC)c(OC)c3)n3nnnc3N2)c(OC)c1 (stereo not given) | – | 12.6 µM [rising, partial curve]
